Measured values: paper PMC13172425
These are yes or no findings as the source states them, for the method shown. In cells and extracts the contact can be indirect. Some entries that bind do so weakly or less than the wild type. Sequences can lack the tags named with a protein.

Legend:
[1] = biological target: FOXK2 with a C-terminal Flag tag, Q01167; assay: co-IP; as the basal co-IP, but cells sonicated in high salt buffer and first wash with 1 mL high salt buffer, 2nd and 3rd wash with 50 mM HEPES pH 7.5, 150 mM NaCl; conditions: remark: other sources report otherwise
[2] = biological target: FOXK2 with a C-terminal Flag tag, Q01167; assay: co-IP; FOXK2-Flag captured on anti-FLAG gel (FLAG Immunoprecipitation Kit) from 0.7 mg lysate of transfected HEK-293 cells, overnight at 4 °C; basal (standard) lysis and wash; blots with anti-Myc, anti-FLAG, anti-KAT8, anti-Naa50; conditions: remark: other sources report otherwise

B1: OGT with an N-terminal Myc tag, O15294 1-1046 (enzyme)
chain: MASSVGNVADSTEPTKRMLSFQGLAELAHREYQAGDFEAAERHCMQLWRQEPDNTGVLLLLSSIHFQCRRLDRSAHFSTLAIKQNPLLAEAYSNLGNVYKERGQLQEAIEHYRHALRLKPDFIDGYINLAAALVAAGDMEGAVQAYVSALQYNPDLYCVRSDLGNLLKALGRLEEAKACYLKAIETQPNFAVAWSNLGCVFNAQGEIWLAIHHFEKAVTLDPNFLDAYINLGNVLKEARIFDRAVAAYLRALSLSPNHAVVHGNLACVYYEQGLIDLAIDTYRRAIELQPHFPDAYCNLANALKEKGSVAEAEDCYNTALRLCPTHADSLNNLANIKREQGNIEEAVRLYRKALEVFPEFAAAHSNLASVLQQQGKLQEALMHYKEAIRISPTFADAYSNMGNTLKEMQDVQGALQCYTRAIQINPAFADAHSNLASIHKDSGNIPEAIASYRTALKLKPDFPDAYCNLAHCLQIVCDWTDYDERMKKLVSIVADQLEKNRLPSVHPHHSMLYPLSHGFRKAIAERHGNLCLDKINVLHKPPYEHPKDLKLSDGRLRVGYVSSDFGNHPTSHLMQSIPGMHNPDKFEVFCYALSPDDGTNFRVKVMAEANHFIDLSQIPCNGKAADRIHQDGIHILVNMNGYTKGARNELFALRPAPIQAMWLGYPGTSGALFMDYIITDQETSPAEVAEQYSEKLAYMPHTFFIGDHANMFPHLKKKAVIDFKSNGHIYDNRIVLNGIDLKAFLDSLPDVKIVKMKCPDGGDNADSSNTALNMPVIPMNTIAEAVIEMINRGQIQITINGFSISNGLATTQINNKAATGEEVPRTIIVTTRSQYGLPEDAIVYCNFNQLYKIDPSTLQMWANILKRVPNSVLWLLRFPAVGEPNIQQYAQNMGLPQNRIIFSPVAPKEEHVRRGQLADVCLDTPLCNGHTTGMDVLWAGTPMVTMPGETLASRVAASQLTCLGCLELIAKNRQEYEDIAVKLGTDLEYLKKVRGKVWKQRISSPLFNTKQYTMELERLYLQMWEHYAAGNKPDHMIKPVEVTESA
- binding [1]: binds
- binding [2]: binds
